Results are given in words; binding and its absence hold for the method and conditions named. Binding seen in cells or lysates may run through a third protein. Some results given as binding are weak or reduced against the parent protein; the word gives no strength. Sequences can lack the tags named with a protein.
Molecular target: T1, Flag-Ppp1r36 (mouse) (UniProt D3Z0R2)
T1 sequence: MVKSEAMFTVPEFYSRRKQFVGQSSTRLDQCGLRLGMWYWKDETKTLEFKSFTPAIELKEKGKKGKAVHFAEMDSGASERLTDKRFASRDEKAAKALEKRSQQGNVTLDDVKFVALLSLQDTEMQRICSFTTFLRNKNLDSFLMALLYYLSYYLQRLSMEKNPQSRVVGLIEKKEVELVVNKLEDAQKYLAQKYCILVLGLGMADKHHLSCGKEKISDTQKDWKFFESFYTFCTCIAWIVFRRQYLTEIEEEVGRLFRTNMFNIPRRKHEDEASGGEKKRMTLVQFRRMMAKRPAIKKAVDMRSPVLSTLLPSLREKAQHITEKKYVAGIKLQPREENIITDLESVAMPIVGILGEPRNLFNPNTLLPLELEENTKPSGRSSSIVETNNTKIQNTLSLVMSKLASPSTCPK
Assay: co-IP; HEK293T cells transfected and cultured in HBSS medium for 2 hrs before harvest; RIPA lysates (50 mM Tris pH7.4, 150 mM NaCl, 0.5% NP40, 1 mM EDTA); anti-Flag antibody and Protein G Agarose overnight at 4 °C, washed four times; immunoblot with anti-Atg16L1 or anti-Myc

Chains of the proteins cited; added tags and fusions are not shown.
UniProt Q676U5: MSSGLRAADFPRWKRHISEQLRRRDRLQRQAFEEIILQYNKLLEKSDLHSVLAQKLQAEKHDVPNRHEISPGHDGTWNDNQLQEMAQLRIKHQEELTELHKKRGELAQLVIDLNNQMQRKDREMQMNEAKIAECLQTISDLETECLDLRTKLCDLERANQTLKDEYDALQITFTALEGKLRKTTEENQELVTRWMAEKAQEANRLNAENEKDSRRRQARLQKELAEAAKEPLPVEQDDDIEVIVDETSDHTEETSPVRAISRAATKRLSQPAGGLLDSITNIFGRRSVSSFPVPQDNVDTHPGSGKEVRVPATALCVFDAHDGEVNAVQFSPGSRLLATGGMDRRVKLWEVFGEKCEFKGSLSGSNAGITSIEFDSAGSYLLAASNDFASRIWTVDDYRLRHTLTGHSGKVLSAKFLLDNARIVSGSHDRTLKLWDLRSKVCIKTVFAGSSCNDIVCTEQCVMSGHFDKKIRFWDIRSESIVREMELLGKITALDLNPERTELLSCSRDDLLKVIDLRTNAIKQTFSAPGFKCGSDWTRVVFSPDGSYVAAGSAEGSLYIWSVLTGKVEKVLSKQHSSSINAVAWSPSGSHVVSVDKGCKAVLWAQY

binding: binds
Substance: endogenous Atg16L1 (from UniProt Q676U5 1-607)

Source: PMC4838909
